Reference: patent US7678395B2, “Stimulation of hair growth by isoginkgetin” (Osteoscreen, Inc., priority 2003, dated 2010)
For at least one compound, name, drawing or mass did not settle the structure.

Chains of the proteins cited; added tags and fusions are not shown. Lines headed by an entry give the natural chain unless they say otherwise; changes in a name come on top.
UniProt O55234: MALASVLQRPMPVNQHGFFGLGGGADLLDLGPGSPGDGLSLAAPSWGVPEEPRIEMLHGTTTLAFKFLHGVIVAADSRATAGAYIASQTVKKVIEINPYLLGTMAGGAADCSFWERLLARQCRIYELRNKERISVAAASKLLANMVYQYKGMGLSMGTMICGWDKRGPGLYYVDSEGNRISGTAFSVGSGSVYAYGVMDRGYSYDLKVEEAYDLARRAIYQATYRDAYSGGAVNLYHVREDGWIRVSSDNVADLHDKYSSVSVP

Key:
20S proteasome = molecular target: T1, 20S proteasome (Mus musculus, UniProt O55234); experiment: Proteasome inhibition assay, compounds added directly to 20S proteasome preparation (LLVY-AMC cleavage); assay type: biochemical; settings: 20S proteasome preparations from packed whole blood of mice, FIG. 2A
T1 construct: 20S proteasome preparations from packed whole blood of mice; from tissue; host or cells: packed whole blood of mice (EDTA lysate supernatant)
Procedure: If packed whole blood is used as a source for proteasomes, 1 ml blood collected in heparinized microtainer tubes is diluted 1:1 (v/v) with saline and centrifuged at 500×g (Sorvall RT 6000D, rotor H-1000B at 1500 rpm) for 5 min at room temperature. The supernatant is removed and the PWB pellet resuspended in 1 ml PBS and microcentrifuged at 6600×g (Eppendorf 5415C at 7000 rpm) for 10 min at room temperature. The supernatant is removed and the PWB pellet is then frozen at −70° C. prior to proteasome analysis.
To prepare the proteasomes, WBC or RBC or PWB 1:1 (v/v) are lysed using 5 mM EDTA, pH 8.0 for 30 min and centrifuged at 15,000×g (Eppendorf 5415C at 14,000 rpm) for 10 min at room temperature. The supernatant containing proteasomes is placed on ice and the protein concentration is determined. […]
For the assay, 50 μl sample—i.e., 20 proteasome; or standard; or ˜50 μg/μl WBC; or ˜500 μg/μl RBC or ˜1000 μg/μl PWB samples some containing test compounds is added to 50 μl substrate buffer (20 mM HEPES, 0.5 mM EDTA, 0.05% SDS, and 120 μM LLVY-AMC; pH 8.0) in a 96-well black fluorescence plate. The reaction is measured with a fluorescence spectrophotometer (excitation max.: 380 nm; emission max.: 440 nm, and velocity of reaction determined. As shown, the substrate is Leu-Leu-Val-Tyr-AMC. AMC is amido-4-methylcoumarin. […]

C57 male black mice = experiment: Stimulation of hair growth on shaved dorsal trunk, topical application; assay type: in vivo; settings: 5 days, 1% OSA (100 μl) or 10% isoginkgetin (50 μl), after 17 days and 26 days, FIGS. 3A and 3B
Procedure: C57 male black mice, 8 weeks old, were acclimated for 7 days in individual cages and fed standard diets and water ad libitum. The mice were anesthetized prior to manipulation. The dorsal trunk of each mouse was shaved and then treated topically starting the following day with a 1.0% solution of OSA (100 μl) which was applied for each of 5 days. A similar protocol was followed using 50 μl solution of isoginkgetin at percentages of 1, 5 and 10% wt/wt. The progression of hair growth is monitored visually and photographed.
FIGS. 3A and 3B show the results for 1% OSA or 10% isoginkgetin after 17 days and 26 days respectively.

Structure (SMILES): COc1ccc(-c2cc(=O)c3c(O)cc(O)c(-c4cc(-c5cc(=O)c6c(O)cc(O)cc6o5)ccc4OC)c3o2)cc1 [isoginkgetin]
- inhibition of the Vmax of the proteolytic cleavage of the LLVY-AMC substrate (20S proteasome): similarly inhibit the Vmax
- growth of hair in the dorsal area as compared to control (C57 male black mice): stimulate the growth of hair
